Experimental data as given in paper PMC10987677 (The EMBO Journal, 2024).
No constants are given. Whether binding was seen depends on the method and setting. Some results given as binding are weak or reduced against the parent protein; the word gives no strength.

Protein sequences, listed by entry. Tags and fused reporters are not part of them. Residues count along the entry.
UniProt Q8NCM8, residues 2-4307: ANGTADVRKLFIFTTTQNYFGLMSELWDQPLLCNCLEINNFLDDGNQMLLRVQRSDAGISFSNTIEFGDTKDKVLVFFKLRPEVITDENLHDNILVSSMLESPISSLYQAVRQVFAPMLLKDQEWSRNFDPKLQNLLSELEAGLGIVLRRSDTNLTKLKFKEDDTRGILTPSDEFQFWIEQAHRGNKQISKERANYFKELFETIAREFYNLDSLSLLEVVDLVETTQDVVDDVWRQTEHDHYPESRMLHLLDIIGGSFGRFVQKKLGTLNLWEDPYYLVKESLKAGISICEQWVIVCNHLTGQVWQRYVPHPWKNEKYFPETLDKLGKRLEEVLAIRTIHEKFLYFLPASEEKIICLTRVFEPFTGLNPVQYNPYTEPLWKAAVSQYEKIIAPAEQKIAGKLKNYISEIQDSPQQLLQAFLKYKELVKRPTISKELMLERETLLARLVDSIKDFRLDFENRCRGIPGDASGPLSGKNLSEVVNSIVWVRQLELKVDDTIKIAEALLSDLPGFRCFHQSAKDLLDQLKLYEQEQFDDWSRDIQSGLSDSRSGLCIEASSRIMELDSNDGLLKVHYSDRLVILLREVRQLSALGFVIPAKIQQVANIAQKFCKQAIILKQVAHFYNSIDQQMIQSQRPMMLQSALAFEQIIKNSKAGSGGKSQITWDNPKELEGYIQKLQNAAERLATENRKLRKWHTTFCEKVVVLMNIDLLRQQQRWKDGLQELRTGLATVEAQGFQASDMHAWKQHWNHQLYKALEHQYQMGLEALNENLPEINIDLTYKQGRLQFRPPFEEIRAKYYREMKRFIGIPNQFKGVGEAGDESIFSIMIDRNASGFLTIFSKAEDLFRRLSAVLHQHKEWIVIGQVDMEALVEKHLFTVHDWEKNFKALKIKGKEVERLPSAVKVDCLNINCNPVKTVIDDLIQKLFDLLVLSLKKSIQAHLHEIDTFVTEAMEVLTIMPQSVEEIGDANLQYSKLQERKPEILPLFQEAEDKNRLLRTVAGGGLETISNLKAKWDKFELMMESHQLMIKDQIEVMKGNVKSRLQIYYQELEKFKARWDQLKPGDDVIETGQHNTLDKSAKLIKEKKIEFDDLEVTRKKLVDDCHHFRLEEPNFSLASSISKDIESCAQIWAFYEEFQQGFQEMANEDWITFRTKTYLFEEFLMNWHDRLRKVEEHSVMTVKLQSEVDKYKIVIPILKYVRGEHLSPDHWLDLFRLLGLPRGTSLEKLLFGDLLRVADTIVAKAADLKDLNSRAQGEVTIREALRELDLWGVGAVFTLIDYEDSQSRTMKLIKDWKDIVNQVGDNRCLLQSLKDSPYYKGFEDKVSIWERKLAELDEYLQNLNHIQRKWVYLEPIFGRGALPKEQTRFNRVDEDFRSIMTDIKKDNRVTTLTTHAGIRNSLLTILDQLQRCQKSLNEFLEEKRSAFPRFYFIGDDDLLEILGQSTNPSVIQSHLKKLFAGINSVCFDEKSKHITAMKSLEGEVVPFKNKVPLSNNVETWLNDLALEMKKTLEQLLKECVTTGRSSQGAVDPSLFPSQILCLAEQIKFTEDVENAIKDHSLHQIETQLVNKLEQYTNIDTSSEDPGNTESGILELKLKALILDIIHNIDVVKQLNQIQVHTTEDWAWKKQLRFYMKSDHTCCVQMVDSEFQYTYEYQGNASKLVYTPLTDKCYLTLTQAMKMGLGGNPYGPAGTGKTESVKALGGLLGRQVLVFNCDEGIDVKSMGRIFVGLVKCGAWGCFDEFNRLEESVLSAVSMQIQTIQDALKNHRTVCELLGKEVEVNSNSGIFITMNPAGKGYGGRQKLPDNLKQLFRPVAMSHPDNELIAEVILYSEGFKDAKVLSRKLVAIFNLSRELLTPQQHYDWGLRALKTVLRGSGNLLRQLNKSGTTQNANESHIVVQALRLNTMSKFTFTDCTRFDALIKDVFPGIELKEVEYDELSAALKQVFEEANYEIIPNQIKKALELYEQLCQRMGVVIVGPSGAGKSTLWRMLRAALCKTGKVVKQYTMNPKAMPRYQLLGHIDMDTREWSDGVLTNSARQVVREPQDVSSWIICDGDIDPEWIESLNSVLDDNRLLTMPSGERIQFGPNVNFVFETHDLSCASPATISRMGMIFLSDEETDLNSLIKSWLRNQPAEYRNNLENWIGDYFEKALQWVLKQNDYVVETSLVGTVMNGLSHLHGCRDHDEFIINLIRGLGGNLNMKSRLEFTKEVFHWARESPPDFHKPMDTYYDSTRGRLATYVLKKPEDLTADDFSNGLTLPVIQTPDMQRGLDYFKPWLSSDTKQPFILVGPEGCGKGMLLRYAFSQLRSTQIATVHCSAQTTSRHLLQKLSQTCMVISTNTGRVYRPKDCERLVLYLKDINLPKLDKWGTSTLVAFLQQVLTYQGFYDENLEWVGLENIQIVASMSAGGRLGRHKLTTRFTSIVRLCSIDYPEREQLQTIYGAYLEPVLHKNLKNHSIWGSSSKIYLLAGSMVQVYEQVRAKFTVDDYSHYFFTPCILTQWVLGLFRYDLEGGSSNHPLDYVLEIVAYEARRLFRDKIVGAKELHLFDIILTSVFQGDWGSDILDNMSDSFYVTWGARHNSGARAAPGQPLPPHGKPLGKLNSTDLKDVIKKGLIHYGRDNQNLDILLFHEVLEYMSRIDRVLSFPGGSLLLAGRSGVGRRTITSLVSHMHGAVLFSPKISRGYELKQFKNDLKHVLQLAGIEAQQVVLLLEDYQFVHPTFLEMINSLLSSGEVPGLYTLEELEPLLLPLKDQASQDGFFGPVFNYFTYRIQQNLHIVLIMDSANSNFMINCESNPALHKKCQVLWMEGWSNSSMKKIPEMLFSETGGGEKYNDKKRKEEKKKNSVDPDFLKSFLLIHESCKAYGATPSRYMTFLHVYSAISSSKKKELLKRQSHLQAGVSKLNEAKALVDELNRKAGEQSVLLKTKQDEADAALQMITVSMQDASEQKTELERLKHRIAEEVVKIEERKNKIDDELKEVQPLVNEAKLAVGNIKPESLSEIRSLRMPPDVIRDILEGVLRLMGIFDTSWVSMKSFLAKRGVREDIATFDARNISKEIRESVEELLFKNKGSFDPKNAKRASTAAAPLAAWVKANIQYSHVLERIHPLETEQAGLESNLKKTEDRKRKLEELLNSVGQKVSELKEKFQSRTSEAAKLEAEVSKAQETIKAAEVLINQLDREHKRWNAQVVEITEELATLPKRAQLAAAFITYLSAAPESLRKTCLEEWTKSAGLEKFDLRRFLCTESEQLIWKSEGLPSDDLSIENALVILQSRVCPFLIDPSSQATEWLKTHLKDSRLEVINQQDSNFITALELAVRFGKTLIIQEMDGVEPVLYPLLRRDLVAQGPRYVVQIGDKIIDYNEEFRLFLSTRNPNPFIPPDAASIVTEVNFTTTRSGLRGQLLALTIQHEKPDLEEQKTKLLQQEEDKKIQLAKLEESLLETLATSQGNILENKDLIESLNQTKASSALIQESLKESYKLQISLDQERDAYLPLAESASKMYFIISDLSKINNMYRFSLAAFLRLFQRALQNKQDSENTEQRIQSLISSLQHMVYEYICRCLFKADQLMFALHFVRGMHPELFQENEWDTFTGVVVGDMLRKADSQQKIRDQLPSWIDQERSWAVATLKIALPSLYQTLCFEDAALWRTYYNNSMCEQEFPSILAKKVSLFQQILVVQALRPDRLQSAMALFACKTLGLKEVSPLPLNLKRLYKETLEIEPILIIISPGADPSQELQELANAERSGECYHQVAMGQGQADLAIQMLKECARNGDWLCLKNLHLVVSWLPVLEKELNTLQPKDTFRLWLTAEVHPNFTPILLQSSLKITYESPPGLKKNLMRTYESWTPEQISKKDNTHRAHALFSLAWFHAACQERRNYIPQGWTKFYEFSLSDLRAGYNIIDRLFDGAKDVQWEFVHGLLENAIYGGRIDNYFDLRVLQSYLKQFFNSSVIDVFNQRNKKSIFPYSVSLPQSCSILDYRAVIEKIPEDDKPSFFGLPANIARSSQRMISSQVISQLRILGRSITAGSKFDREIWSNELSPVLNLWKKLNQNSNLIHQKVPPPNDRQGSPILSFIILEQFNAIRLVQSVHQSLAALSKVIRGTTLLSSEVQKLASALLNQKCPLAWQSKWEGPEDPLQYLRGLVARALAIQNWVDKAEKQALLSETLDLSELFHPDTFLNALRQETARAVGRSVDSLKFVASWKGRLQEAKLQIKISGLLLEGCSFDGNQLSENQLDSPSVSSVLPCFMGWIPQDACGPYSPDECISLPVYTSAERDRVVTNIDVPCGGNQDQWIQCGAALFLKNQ
UniProt Q96EX3: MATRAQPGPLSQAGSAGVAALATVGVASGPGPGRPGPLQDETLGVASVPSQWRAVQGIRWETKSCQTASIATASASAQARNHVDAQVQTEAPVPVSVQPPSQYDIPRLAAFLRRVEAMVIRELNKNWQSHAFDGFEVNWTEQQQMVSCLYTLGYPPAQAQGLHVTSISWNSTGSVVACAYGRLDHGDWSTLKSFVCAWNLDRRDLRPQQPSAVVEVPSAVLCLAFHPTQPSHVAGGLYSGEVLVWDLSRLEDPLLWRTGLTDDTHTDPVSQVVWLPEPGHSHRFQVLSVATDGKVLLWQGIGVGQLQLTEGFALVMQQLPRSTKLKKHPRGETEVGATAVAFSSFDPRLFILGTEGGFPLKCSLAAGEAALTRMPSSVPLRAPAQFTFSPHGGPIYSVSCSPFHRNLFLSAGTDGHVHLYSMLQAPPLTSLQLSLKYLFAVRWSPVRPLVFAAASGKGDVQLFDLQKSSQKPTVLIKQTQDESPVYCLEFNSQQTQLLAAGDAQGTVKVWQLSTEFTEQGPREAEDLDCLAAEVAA
UniProt Q8WVS4: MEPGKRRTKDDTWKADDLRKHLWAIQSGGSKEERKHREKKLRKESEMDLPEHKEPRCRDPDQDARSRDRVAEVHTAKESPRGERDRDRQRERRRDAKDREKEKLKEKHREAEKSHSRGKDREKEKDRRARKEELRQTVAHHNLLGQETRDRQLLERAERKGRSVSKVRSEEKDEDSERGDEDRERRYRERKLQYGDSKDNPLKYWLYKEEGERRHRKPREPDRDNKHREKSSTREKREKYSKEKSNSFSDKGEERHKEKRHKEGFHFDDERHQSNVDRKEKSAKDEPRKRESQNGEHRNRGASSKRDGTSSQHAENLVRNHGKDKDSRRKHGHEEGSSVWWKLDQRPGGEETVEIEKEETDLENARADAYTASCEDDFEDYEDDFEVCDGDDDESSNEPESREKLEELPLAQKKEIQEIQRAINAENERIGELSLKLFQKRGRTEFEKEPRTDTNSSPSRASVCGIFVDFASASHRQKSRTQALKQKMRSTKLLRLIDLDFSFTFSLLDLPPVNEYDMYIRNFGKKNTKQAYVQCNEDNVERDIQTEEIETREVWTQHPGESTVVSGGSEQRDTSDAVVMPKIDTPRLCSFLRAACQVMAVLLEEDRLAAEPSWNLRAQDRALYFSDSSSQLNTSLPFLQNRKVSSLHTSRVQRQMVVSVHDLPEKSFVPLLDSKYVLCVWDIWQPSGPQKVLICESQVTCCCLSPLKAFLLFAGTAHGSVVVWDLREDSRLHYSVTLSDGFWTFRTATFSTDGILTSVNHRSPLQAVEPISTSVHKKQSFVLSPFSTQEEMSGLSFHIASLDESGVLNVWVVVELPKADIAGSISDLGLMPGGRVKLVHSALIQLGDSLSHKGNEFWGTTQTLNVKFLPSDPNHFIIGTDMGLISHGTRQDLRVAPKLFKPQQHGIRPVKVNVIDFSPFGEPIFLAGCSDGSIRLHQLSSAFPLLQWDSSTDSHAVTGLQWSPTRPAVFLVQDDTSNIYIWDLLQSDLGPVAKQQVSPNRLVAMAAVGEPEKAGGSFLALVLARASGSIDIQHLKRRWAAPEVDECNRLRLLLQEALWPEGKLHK

These substances were tested against dynein-2 heavy chain (DYNC2H1) (UniProt Q8NCM8) (assay: cryo-EM structure; purified dynein-2 complex (eight subunits co-expressed in sf9); consensus map of tail particles at 3.9 Å global resolution, local refinements of WDR34 and WDR60 with DYNC2H1; both purified).

Row | Substance | binding
1 | dynein-2 heavy chain (DYNC2H1) (from UniProt Q8NCM8 2-4307) | binds
2 | dynein-2 intermediate chain WDR34/DYNC2I2 (from UniProt Q96EX3 1-536) | binds
3 | dynein-2 intermediate chain WDR60/DYNC2I1 (from UniProt Q8WVS4 1-1066) | binds
